Measured values as given in doi:10.1101/2023.10.26.562393.

Amino acid sequences for entries named in this document (tags omitted).
UniProt Q9UQ84: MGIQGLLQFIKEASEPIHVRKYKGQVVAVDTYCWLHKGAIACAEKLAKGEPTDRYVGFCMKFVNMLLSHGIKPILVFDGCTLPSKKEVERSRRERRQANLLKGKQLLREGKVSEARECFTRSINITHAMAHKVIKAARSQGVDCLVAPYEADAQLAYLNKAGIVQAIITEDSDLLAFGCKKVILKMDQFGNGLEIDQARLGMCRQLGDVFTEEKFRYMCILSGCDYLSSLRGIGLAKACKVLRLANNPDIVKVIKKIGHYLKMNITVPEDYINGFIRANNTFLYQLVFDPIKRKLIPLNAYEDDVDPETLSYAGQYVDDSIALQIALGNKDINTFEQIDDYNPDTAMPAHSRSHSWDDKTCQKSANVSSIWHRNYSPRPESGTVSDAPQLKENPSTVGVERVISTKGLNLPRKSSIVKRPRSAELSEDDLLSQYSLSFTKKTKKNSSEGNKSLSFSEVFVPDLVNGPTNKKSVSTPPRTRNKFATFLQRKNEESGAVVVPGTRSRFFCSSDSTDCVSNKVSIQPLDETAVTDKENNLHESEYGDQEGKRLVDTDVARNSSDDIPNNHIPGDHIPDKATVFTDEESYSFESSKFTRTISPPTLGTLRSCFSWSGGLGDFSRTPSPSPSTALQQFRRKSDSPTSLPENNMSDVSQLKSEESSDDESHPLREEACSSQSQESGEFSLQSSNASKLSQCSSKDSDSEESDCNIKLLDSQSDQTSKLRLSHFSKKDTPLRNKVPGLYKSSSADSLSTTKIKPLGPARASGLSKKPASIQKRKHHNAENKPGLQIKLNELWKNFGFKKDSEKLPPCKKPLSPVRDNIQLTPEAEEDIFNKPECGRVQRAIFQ

B1: endogenous cyclin F (HEK293T) (protein, UniProt P41002 1-786)
chain: MGSGGVVHCRCAKCFCYPTKRRIRRRPRNLTILSLPEDVLFHILKWLSVEDILAVRAVHSQLKDLVDNHASVWACASFQELWPSPGNLKLFERAAEKGNFEAAVKLGIAYLYNEGLSVSDEARAEVNGLKASRFFSLAERLNVGAAPFIWLFIRPPWSVSGSCCKAVVHESLRAECQLQRTHKASILHCLGRVLSLFEDEEKQQQAHDLFEEAAHQGCLTSSYLLWESDRRTDVSDPGRCLHSFRKLRDYAAKGCWEAQLSLAKACANANQLGLEVRASSEIVCQLFQASQAVSKQQVFSVQKGLNDTMRYILIDWLVEVATMKDFTSLCLHLTVECVDRYLRRRLVPRYRLQLLGIACMVICTRFISKEILTIREAVWLTDNTYKYEDLVRMMGEIVSALEGKIRVPTVVDYKEVLLTLVPVELRTQHLCSFLCELSLLHTSLSAYAPARLAAAALLLARLTHGQTQPWTTQLWDLTGFSYEDLIPCVLSLHKKCFHDDAPKDYRQVSLTAVKQRFEDKRYGEISQEEVLSYSQLCAALGVTQDSPDPPTFLSTGEIHAFLSSPSGRRTKRKRENSLQEDRGSFVTTPTAELSSQEETLLGSFLDWSLDCCSGYEGDQESEGEKEGDVTAPSGILDVTVVYLNPEQHCCQESSDEEACPEDKGPQDPQALALDTQIPATPGPKPLVRTSREPGKDVTTSGYSSVSTASPTSSVDGGLGALPQPTSVLSLDSDSHTQPCHHQARKSCLQCRPPSPPESSVPQQQVKRINLCIHSEEEDMNLGLVRL

Tests used:
TurboID-cyclin F = biological target: T1, TurboID-cyclin F (UniProt P41002); experiment: proximity labelling
T1 sequence: B1 chain

GFP-EXO1 WT = GFP-EXO1 WT (UniProt Q9UQ84); experiment: affinity purification with mass spectrometry

Molecule | binding (TurboID-cyclin F) | binding (GFP-EXO1 WT)
endogenous EXO1 (Flp-In T-REx HEK293) (from UniProt Q9UQ84 1-846) | binds | 
B1 |  | binds

Results are given in words; binding and its absence hold for the method and conditions named. In cells and extracts the contact can be indirect. Here binding means that the protein was enriched with, or labelled near, the bait; the list need not be complete.
